This is an account of results in publication PMC9122930.

Assay [1] has as its target T1, Myc-tagged PLSCR1 (mouse) (UniProt Q9JJ00).
T1 sequence: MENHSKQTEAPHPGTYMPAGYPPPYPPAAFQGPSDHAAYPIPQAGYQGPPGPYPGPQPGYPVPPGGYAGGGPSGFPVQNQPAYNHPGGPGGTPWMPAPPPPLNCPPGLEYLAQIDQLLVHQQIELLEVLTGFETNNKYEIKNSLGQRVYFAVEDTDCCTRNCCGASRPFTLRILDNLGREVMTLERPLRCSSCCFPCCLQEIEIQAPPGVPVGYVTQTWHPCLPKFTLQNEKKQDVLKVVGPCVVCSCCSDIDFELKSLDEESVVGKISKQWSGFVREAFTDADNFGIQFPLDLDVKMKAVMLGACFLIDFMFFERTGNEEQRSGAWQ
The experiment in a line: co-IP.

The target of assay [2] is T2, Myc-tagged ILDR1 cytoplasmic domain (mouse) (UniProt Q8CBR1).
T2 sequence: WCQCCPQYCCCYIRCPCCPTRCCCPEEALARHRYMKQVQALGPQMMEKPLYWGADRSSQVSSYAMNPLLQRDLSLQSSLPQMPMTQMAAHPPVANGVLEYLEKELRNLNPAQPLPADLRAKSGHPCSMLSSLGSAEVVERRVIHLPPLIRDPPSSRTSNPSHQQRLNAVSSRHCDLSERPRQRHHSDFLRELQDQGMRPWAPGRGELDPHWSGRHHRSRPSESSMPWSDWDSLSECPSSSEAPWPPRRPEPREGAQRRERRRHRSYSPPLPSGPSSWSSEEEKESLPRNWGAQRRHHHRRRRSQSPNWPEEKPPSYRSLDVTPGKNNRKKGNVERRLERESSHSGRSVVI
The experiment in a line: co-IP.

Results are given in words; binding and its absence hold for the method and conditions named. Binding seen in cells or lysates may run through a third protein. Some results given as binding are weak or reduced against the parent protein; the word gives no strength. Tags and fused reporters may be left off the sequences shown.

B1: EGFP-tagged mouse ILDR1 cytoplasmic domain (domain or fragment, UniProt Q8CBR1-1 188-537)
chain: T2 sequence
With B1, in assay [1], the binding result was “binds”.

B2: EGFP-tagged PLSCR1 (protein, UniProt Q9JJ00 1-328)
chain: T1 sequence
B2: in assay [2], the binding entry was “binds”.
